Results are given in words; binding and its absence hold for the method and conditions named. In cells and extracts the contact can be indirect. These calls come from enrichment with a bait or labelling near it, and not all partners need be listed. Tags and fused reporters may be left off the sequences shown. Blank lines part the entries; values can stand above or below the binder they belong to.
Target: GST-fused domain H of Syn2a (mouse)
Assay: affinity purification with mass spectrometry; GST pull-down with GST-Syn2a-DomH followed by mass spectrometry; 108 proteins identified; input not stated; only the target purified

binding: binds
B1: Ras-related protein Rab3a (found in the GST-Syn2a-DomH pull-down by mass spectrometry) (protein, UniProt P63011 1-220)
chain: MASATDSRYGQKESSDQNFDYMFKILIIGNSSVGKTSFLFRYADDSFTPAFVSTVGIDFKVKTIYRNDKRIKLQIWDTAGQERYRTITTAYYRGAMGFILMYDITNEESFNAVQDWSTQIKTYSWDNAQVLLVGNKCDMEDERVVSSERGRQLADHLGFEFFEASAKDNINVKQTFERLVDVICEKMSESLDTADPAVTGAKQGPQLTDQQAPPHQDCAC

binding: binds
B2: Syngr3 (found in the GST-Syn2a-DomH pull-down by mass spectrometry) (protein, UniProt Q8R191 1-229)
chain: MEGASFGAGRAGAAFDPVSFARRPQTLLRVVSWVFSIAVFGPIVNEGYVNSDSGPELRCVFNGNAGACRFGVVLGLGAFIACVAFLLLDVRFQQISSVRDRRRAVLLDLGFSGVWSFLWFVGFCFLTNQWQRTTPGPGTAQAGDAARAAIAFSFFSILSWVALTVKALQRFRLGTDMSLFATDQLGTGAAQAYPGYPVGSGVEGTETYQSPPFTETLDTSSKGYQVPAY

Source: publication PMC10866652
